Test results published in PubChem BioAssay AID222 (DTP/NCI, 2004).
The list does not hold the whole screen: it is rich in T/C values a quarter to a half above the control, in often repeated tests (any T/C) and in doses without a T/C. Other doses and runs of a compound stand elsewhere. T/C is the treated group as % of the vehicle group. Some doses have a count of surviving animals in place of a T/C: the source holds a T/C of zero for them, seemingly a mark for toxic or unscored doses. Some survivor counts are full or nearly so, which does not show that the dose was tolerated: the source hardly ever lists a survival T/C far under the control, and the zero likely stands for such cases as well. Survivors were counted at the toxicity check, usually on the fifth day, unless a day is given; later deaths do not show. Schedule codes are those of the source, read here as Q, the interval in days (D) or hours (H), X, the number of doses. Some entries hold several experiments; the results are listed from low to high. Some schedule codes hold Z or #, which are not explained here. For survival time, this PubChem deposit counts one and a half times the control or more as active, and values a quarter to a half above the control carry no call in these data; other NCI protocols may use other cut-offs. Some T/C values carry the count of animals alive at the toxicity check (mostly the fifth day); without a count, all were alive then. Starred links: 1 amine or outer side, 2 acyl side, 3 side chain; linkers in the order of their positions; H or OH if unused. Positions of bridges follow the written chain, without caps; N, C: chain ends. Non-standard residues stand in square brackets, D forms with d. Residues, ends and D or L forms follow the SMILES beside them. Chains are numbered I, II in the order given. Actinocin(9to1) = Cc1c2oc3c(C)ccc(C(=O)[*:1])c3nc-2c(C(=O)[*:2])c(N)c1=O; aThr = C[C@H](O)[C@H](N)C(=O)O; NMeV = CN[C@H](C(=O)O)C(C)C; Sar = CNCC(=O)O

Tested on: C57BL/6 mice, intracerebral ependymoblastoma, median survival T/C
Test: NCI In Vivo Anticancer Drug Screen. Data for tumor model Ependymoblastoma (intracerebral) in C57BL/6 mice
Settings: T/C endpoint: median survival time, higher T/C = longer survival
Experimental: The antitumor activity of compounds was measured in mice bearing transplantable tumors. Survival or tumor size were measured and the results are expressed as the measurement made in the treated group (T) divided by the measurement made in the vehicle treated control group (C). The tumor model used in this assay is Ependymoblastoma (intracerebral) in C57BL/6 mice

[1] = dose: 16.0 mg/kg/injection, schedule: Q01DX001 (ip), vehicle: Klucel (hydroxypropylcellulose) (HPC)
[2] = dose: 16.0 mg/kg/injection, schedule: Q01DX005 (ip), vehicle: Klucel (hydroxypropylcellulose) (HPC)
[3] = dose: 32.0 mg/kg/injection, schedule: Q01DX005 (ip), vehicle: Klucel (hydroxypropylcellulose) (HPC)
[4] = dose: 64.0 mg/kg/injection, schedule: Q01DX005 (ip), vehicle: Klucel (hydroxypropylcellulose) (HPC)
[5] = dose: 128.0 mg/kg/injection, schedule: Q01DX001 (ip), vehicle: Klucel (hydroxypropylcellulose) (HPC)
[6] = dose: 128.0 mg/kg/injection, schedule: Q01DX005 (ip), vehicle: Klucel (hydroxypropylcellulose) (HPC)
[7] = dose: 32.0 mg/kg/injection, schedule: Q01DX005 (ip), vehicle: saline with Tween-80
[8] = dose: 64.0 mg/kg/injection, schedule: Q01DX005 (ip), vehicle: saline with Tween-80

## CC(CN1CC(=O)NC(=O)C1)N1CC(=O)NC(=O)C1 (centres undefined)
dose: 8.0 mg/kg/injection, schedule: Q01DX001 (ip), vehicle: Klucel (hydroxypropylcellulose) (HPC)
  survivor count: 10 of 10
[1]
  T/C: 125 % of control
[2]
  survivor count: 7 of 10
[3]
  survivor count: 10 of 10
[4]
  survivor count: 8 of 10
[5]
  T/C: 127 % of control
[6]
  survivor count: 7 of 10 and 9 of 10

## Cc1[nH]c(=O)[nH]c(=O)c1N(CCF)CCCl
dose: 2.0 mg/kg/injection, schedule: Q01DX005 (ip), vehicle: Klucel (hydroxypropylcellulose) (HPC)
  T/C: 103, 104, 106, 113 % of control
dose: 4.0 mg/kg/injection, schedule: Q01DX005 (ip), vehicle: Klucel (hydroxypropylcellulose) (HPC)
  T/C: 97, 100, 101, 107, 111 % of control
dose: 8.0 mg/kg/injection, schedule: Q01DX005 (ip), vehicle: Klucel (hydroxypropylcellulose) (HPC)
  T/C: 100, 105, 110, 111, 269 % of control [9 of 10 alive]
[1]
  T/C: 125 % of control
[2]
  T/C: 99, 102, 104, 106, 269 % of control
dose: 16.0 mg/kg/injection, schedule: Q## X006 (ip), vehicle: Klucel (hydroxypropylcellulose) (HPC)
  survivor count: 9 of 10
[3]
  T/C: 108 and 112 % of control
  survivor count: 9 of 10 and 10 of 10
[7]
  survivor count: 7 of 10 and 8 of 10
dose: 32.0 mg/kg/injection, schedule: Q## X006 (ip), vehicle: Klucel (hydroxypropylcellulose) (HPC)
  survivor count: 5 of 10
dose: 64.0 mg/kg/injection, schedule: Q01DX001 (ip), vehicle: Klucel (hydroxypropylcellulose) (HPC)
  survivor count: 5 of 10
[4]
  T/C: 119 % of control
  survivor count: 0 of 10 and 4 of 10
[8]
  survivor count: 0 of 10 and 5 of 10
dose: 64.0 mg/kg/injection, schedule: Q01DX005 (oral), vehicle: Klucel (hydroxypropylcellulose) (HPC)
  survivor count: 7 of 10
dose: 64.0 mg/kg/injection, schedule: Q## X006 (ip), vehicle: Klucel (hydroxypropylcellulose) (HPC)
  survivor count: 1 of 10
dose: 64.0 mg/kg/injection, schedule: Q#A X002 (ip), vehicle: Klucel (hydroxypropylcellulose) (HPC)
  survivor count: 0 of 10
[5]
  survivor count: 0 of 10 and 3 of 10
dose: 128.0 mg/kg/injection, schedule: Q01DX001 (oral), vehicle: Klucel (hydroxypropylcellulose) (HPC)
  survivor count: 3 of 10
dose: 128.0 mg/kg/injection, schedule: Q01DX005 (oral), vehicle: Klucel (hydroxypropylcellulose) (HPC)
  survivor count: 0 of 10
dose: 128.0 mg/kg/injection, schedule: Q#A X002 (ip), vehicle: Klucel (hydroxypropylcellulose) (HPC)
  survivor count: 0 of 10
dose: 256.0 mg/kg/injection, schedule: Q01DX001 (ip), vehicle: Klucel (hydroxypropylcellulose) (HPC)
  survivor count: 0 of 10 and 1 of 10
dose: 256.0 mg/kg/injection, schedule: Q01DX001 (oral), vehicle: Klucel (hydroxypropylcellulose) (HPC)
  survivor count: 3 of 10
dose: 256.0 mg/kg/injection, schedule: Q01DX005 (oral), vehicle: Klucel (hydroxypropylcellulose) (HPC)
  survivor count: 0 of 10
dose: 512.0 mg/kg/injection, schedule: Q01DX001 (oral), vehicle: Klucel (hydroxypropylcellulose) (HPC)
  survivor count: 0 of 10
dose: 1024.0 mg/kg/injection, schedule: Q01DX001 (oral), vehicle: Klucel (hydroxypropylcellulose) (HPC)
  survivor count: 0 of 10

## Cc1c2oc3c(C)ccc(C(=O)N[C@@H]4C(=O)N[C@H](C(C)C)C(=O)N5CCC[C@H]5C(=O)N(C)CC(=O)N(C)[C@@H](C(C)C)C(=O)O[C@H]4C)c3nc-2c(C(=O)N[C@@H]2C(=O)N[C@H](C(C)C)C(=O)N3CCC[C@H]3C(=O)N(C)CC(=O)N(C)[C@@H](C(C)C)C(=O)O[C@H]2C)c(N)c1=O (I: [aThr][dV]P[Sar][NMeV] / II: [aThr][dV]P[Sar][NMeV]; ester I:1-I:C, II:1-II:C; linker I:N-II:N via Actinocin(9to1))
dose: 100.0 micrograms/kg/injection, schedule: Q01DX005 (ip), vehicle: saline
  survivor count: 6 of 6
dose: 200.0 micrograms/kg/injection, schedule: Q01DX005 (ip), vehicle: saline
  survivor count: 0 of 6
dose: 400.0 micrograms/kg/injection, schedule: Q01DX005 (ip), vehicle: saline
  survivor count: 0 of 6
dose: 800.0 micrograms/kg/injection, schedule: Q01DX005 (ip), vehicle: saline
  survivor count: 0 of 6

## Clc1ccc(C(c2ccc(Cl)cc2)C(Cl)(Cl)Cl)cc1
[4]
  survivor count: 8 of 10
[6]
  survivor count: 4 of 10

## CN(C)N=Nc1ccc(C(N)=O)cc1
dose: 8.0 mg/kg/injection, schedule: Q01DX005 (ip), vehicle: saline with Tween-80
  T/C: 138 % of control
dose: 16.0 mg/kg/injection, schedule: Q01DX005 (ip), vehicle: saline with Tween-80
  T/C: 139 % of control
[7]
  T/C: 148 % of control
[8]
  survivor count: 10 of 10
dose: 128.0 mg/kg/injection, schedule: Q01DX005 (ip), vehicle: saline with Tween-80
  survivor count: 7 of 10
